# PubChem BioAssay AID1745846 (National Center for Advancing Translational Sciences (NCATS), 2022)
# Among all 1,400 compounds or so, about 30 (2%) were called active. Not shown: some 15% with an inconclusive outcome. Calls follow the shape of the dose curve; as a rule, active = well fitted inhibition curve with a large enough effect; inconclusive = small, poorly fitted or top-dose-only effect; inactive = flat fitted curve, though single readings scatter. This is one part of the list.
# Test: Firefly Luciferase Counterscreen for Inhibitors of ATXN expression
# Settings: luminescence; series mostly up to 57.5 µM; activity change, negative = inhibition: at the top concentration
# Description: University of Utah School of Medicine, Salt Lake City, Utah
# Spinocerebellar ataxia type 2 (SCA2) is a multisystem neurodegenerative disease caused by a dominantly acting mutation leading to expansion of a polyQ domain in the ataxin-2 protein (ATXN2). SCA2 patients develop progressive ataxia and later lose function in other neuronal systems. Prominent parkinsonian signs develop in some patients. Like many neurodegenerative disorders, no symptomatic or disease-modifying treatments are known.
# The primary objective of the proposed research is to identify compounds inhibiting ATXN2 expression and to test them for efficacy in SCA2 mouse models. We have developed a cell-based assay paired with an in vivo mouse model using identical luciferase expression constructs. This approach takes advantage of an ATXN2-luciferase transgene, with the luciferase gene flanked by the upstream and downstream portions of the ATXN2 gene. Here we describe a 5-7 dose quantitative high thoroughput screen (qHTS) for compounds lowering ATXN2 expression. We screened the NIH Molecular Libraries Small Molecule Repository (MLSMR) and NCGC's mechanistically annotated (MIPE) and drug repurposing (NPC) collections of compounds for lowering expression of an ATXN2-luciferase reporter in HEK-293 cells. The assay is a multiplexed cell viability assay to ensure target reduction in the absence of cytotoxicity. Secondary qHTS assays included a CMV-luciferase reporter expressed in HEK-293 cells as well as a biochemical assay using recombinant luciferase to detect inhibitors of the reporter enzyme. Compounds that inhibit ATXN2 expression but is not cytotoxic were selected for confirmatory and secondary screens.
# PROTOCOL TABLE (as described by Inglese J, Shamu CE and Guy RK. 2007)
# SEQUENCE No. (e.g., 1, 2, 3, etc.); […] (e.g., Cells, Incubation, Reagent, etc.); VALUE; DESCRIPTION.
# 2; Compounds; 23 nL; Kalypsis pintool (Wako USA) equipped with a 1536-well pin head.
# 3; Enzyme; 1 uL; recombinant firefly luciferase (prepared in 50 mM Tris HCl pH7.5, 10 mM MgCl2, 0.05% BSA, 0.01% Tween20) at final concentration of 10 nM. Wells containing buffer only were used as control (set as 100% inhibition when normalizing data).
# 4; Incubation; 10 min; room temperature.
# 5; Detection; Luminescence; Viewlux plate reader (PerkinElmer).
# NOTES (numbers refer to Sequence numbers above)
# 1. Luciferase substrate is added to 1536 well, Greiner white assay plate. Evaporation was prevented by covering assay plates with metal lids containing holes to allow gas diffusion.
# 2. Compounds were added in a dose response manner with the final concentrations of 57, 11.4, 2.28, 0.46, 0.091, 0.018, 0.0037 uM. Vehicle-only plates, with DMSO being pin-transferred to columns 5-48, were inserted uniformly at the beginning and the end of each library to monitor and record any shifts in assay performance.
# 3. Recombinant firefly luciferase (10 nM final concentration) is added to the assay plate.
# 5. End-point luminescence is then measured on the Viewlux (PerkinElmer) imager equipped with a clear emission filter using a 2 sec exposure.
# Inglese J, Shamu CE and Guy RK, Reporting data from high throughput screening of small molecule libraries, Nature Chemical Biology, 2007, 3(8): 438-441. doi.org/10.1038/nchembio0807-438.
# % is scaled to controls: 0 for no effect and ±100 for the full control effect; potency is read from the fitted curve at half-maximal effect.
SMILES,"activity change, negative = inhibition",Potency
Cc1c(C(=O)N2c3ccccc3Sc3ccccc32)cccc1[N+](=O)[O-],inactive: -0.615%,–
Cc1ccc(NC(=O)CNC(=O)c2cccc(C)c2)nc1,inactive: -5.12%,–
CCc1nc2ccc(C(=O)N(C)Cc3ccccc3)cn2c1N(C)Cc1ccc(OC)cc1,inactive: -0.261%,–
CC(C)(O)C#Cc1ccc([C@@H]2C[C@H]3CN(c4ccccc4)C(=O)[C@]34CCCN24)s1,inactive: -1.03%,–
CCn1cc(C(=O)NCc2ccccc2)c(=O)c2cc(F)c(N3CCN(C(=O)c4ccco4)CC3)cc21,inactive: -0.619%,–
Cc1ccc(CN2CCC(c3cc(-c4ccc(Cl)cc4)n[nH]3)CC2)cc1,inactive: -1.78%,–
CCn1c2ccccc2c2cc(/C=N/NC(=O)c3ccncc3)ccc21,inactive: -5.05%,–
Cc1ccccc1C(=O)N/N=C/c1ccc([N+](=O)[O-])s1,–,active: 3.55 µM
NC(=O)Cn1c(=O)n(CCc2ccccc2)c(=O)c2c3c(sc21)CCCC3,inactive: -1.87%,–
COc1cc(/C=C2\COC/C(=C\c3cc(OC)c(OC)c(OC)c3)C2=O)cc(OC)c1OC,inactive: -2%,–
COc1ccc(C(NC(C)=O)c2cc(Cl)c3cccnc3c2O)cc1 (stereo not drawn),inactive: -14.4%,–
CCCCN(C)c1nc(-c2ccco2)c2c(c1C#N)CC(C)(C)OC2,inactive: -12.5%,–
CC(C)(C)OC(=O)NNc1c2ccccc2nc2ccccc12,inactive: -13.9%,–
Cc1ccc(-c2csc(N3CCN(c4cc5c(cc4Cl)nc(-c4ccncc4)n5CCOCCO)CC3)n2)cc1,inactive: -0.701%,–
O=C(Nc1cccc(Br)c1)c1cccc(OC(=S)N2CCOCC2)c1,inactive: -13.5%,–
CCCC(=O)N1CCCC(c2cc(C(=O)Nc3ccccc3)no2)C1 (stereo not drawn),–,active: 1.41 µM
O=[N+]([O-])c1ccc(O)c(/C=N/Nc2ncnc3c2cnn3-c2ccccc2)c1,inactive: -18%,–
CC(=O)NC(c1cccs1)c1cc(Br)c2cccnc2c1O (stereo not drawn),inactive: -15.7%,–
COc1ccc(-c2csc(NC(=O)c3ccc(OCC(=O)N4CCOCC4)c(OC)c3)n2)cc1OC,inactive: -14%,–
COc1ccccc1NC(=S)NC(=O)c1ccc(Cn2cc(Br)cn2)cc1,inactive: 0.576%,–
Cc1ccc(S(=O)(=O)N(Cc2ccccc2)c2ccccc2C(=O)NCc2ccco2)cc1,inactive: -1.41%,–

SMILES,"activity change, negative = inhibition",Potency
Cc1cc(OCCCCCn2ccnc2)cc(C)c1Cl,inactive: -6.15%,–
COc1ccc(Cl)cc1C(=O)Nc1ccccc1N1CCN(C(=O)C(C)C)CC1,inactive: -2.44%,–
O=C(Nc1nnc(C2CC2)o1)c1ccc(S(=O)(=O)N2CCCc3ccccc32)cc1,inactive: -19.2%,–
COc1ccccc1/C=C/C(=O)OCC(=O)Nc1ccc(Cl)cn1,inactive: -12.4%,–
COc1ccccc1N(CC(=O)NCCSCc1ccc(C)cc1)S(=O)(=O)c1ccccc1,inactive: 1.88%,–
COc1ccc(-c2oc3c(OC)c(OC)c(OC)c(O)c3c(=O)c2OC)cc1OC,inactive: -3.94%,–
Cc1cc2c(N=O)c(NO)ccc2[nH]1,inactive: -17.6%,–
O=c1c2ccc(Cl)cc2nc(-c2ccc([N+](=O)[O-])cc2)n1O,inactive: -18.4%,–
CCC(C)N1C(=O)S/C(=C/c2ccc(Sc3nc4ccccc4[nH]3)o2)C1=O (stereo not drawn),inactive: -1.05%,–
O=c1nccc(N/N=C/c2ccccc2O)[nH]1,inactive: -18.7%,–
CCOc1ccccc1N1CCN(c2ncnc3scc(-c4ccc(OC)cc4)c23)CC1,inactive: -1.89%,–
CN1CCN(CC#CCn2c3ccccc3c3ccccc32)CC1,inactive: -3.12%,–
Cc1ccc(-c2c(C#N)c(N)n3c(nc4ccccc43)c2C#N)cc1,inactive: -11.2%,–
O=C(N/N=C/c1cc(Br)ccc1O)C(c1ccncc1)N1CCOCC1 (stereo not drawn),inactive: -3.73%,–
COc1ccc(-c2c[n+]3c(n2-c2ccc(C)cc2)CCCCC3)cc1,inactive: -0.275%,–
COc1ccc(O)c(/C=N/NC(=O)c2ccc(CSc3nc(C)cc(C)n3)cc2)c1,inactive: -1.96%,–
C[C@@H]1ON(C)[C@H]2C[C@H]3c4[nH]c5ccc(-c6ccc7c(c6)OCO7)cc5c4CCN3C(=O)[C@@H]12,inactive: -19.1%,–
COc1ccccc1N(C)S(=O)(=O)c1ccc(C(=O)Nc2ccc(N3CCOCC3)cc2)cc1,inactive: -0.914%,–
CC(C)C(=O)NC(c1cccc([N+](=O)[O-])c1)c1ccc2cccnc2c1O (stereo not drawn),inactive: 0.322%,–
COc1cccc(C(=O)NC2CC3CCCC(C2)N3CC(=O)Nc2ccccc2C(F)(F)F)c1 (stereo not drawn),inactive: -3.42%,–
N#Cc1cc2c(=O)n3ccccc3nc2n(-c2ccccc2Cl)c1=O,inactive: -0.166%,–

SMILES,"activity change, negative = inhibition",Potency
COc1ccc2c(c1)c[n+](C)c1c3cc(OC)c(OC)cc3ccc21,inactive: -19.9%,–
O=C(N/N=C/c1cc(Br)cc(Cl)c1O)c1ccc2c(c1)OCO2,inactive: -18.1%,–
Cc1cc(C)c(CSc2ncc(-c3ccc([N+](=O)[O-])cc3)[nH]2)c(C)c1,inactive: -2.77%,–
COc1cc(/C=C/c2ccc3cccc(O)c3n2)cc(OC)c1OC,inactive: -9.37%,–
O=C(Nc1nonc1-c1ccc(Cl)cc1)c1ccccc1,inactive: 1.38%,–
CCOc1ccc(-c2c[n+]3c(n2-c2ccccc2)CCCCC3)cc1,inactive: -1.14%,–
Cc1ccc(-n2cccn2)c(CN2CCCC(C(=O)c3ccc4c(c3)OCO4)C2)c1 (stereo not drawn),inactive: 1.04%,–
CC(C)(C)c1ccc(OCCCC(=O)NNC(=O)c2ccccc2O)cc1,inactive: -10.8%,–
O=S(=O)([N-]c1nc2ccccc2nc1-[n+]1ccc(Cc2ccccc2)cc1)c1ccc(Br)s1,inactive: -13.6%,–
CS(=O)(=O)c1ccc(Nc2nc(C(N)Cc3ccc(Cl)cc3)cs2)cc1 (stereo not drawn),inactive: 0.635%,–
O=S(=O)(c1ccc(Cl)cc1)N1CCN(Cc2ccc(O)c3ncccc23)CC1,inactive: -0.192%,–
COc1c(C)cccc1C(=O)Nc1ccc(N2CCN(C(=O)c3ccccc3C)CC2)cc1,inactive: -4.9%,–
Cc1ccc(OCC(O)Cn2c(=N)n(CCN3CCCCC3)c3ccccc32)cc1 (stereo not drawn),inactive: 4.64%,–
CN(C)CCOc1ccc(-c2c(-c3ccccc3)sc3ccccc23)cc1,inactive: -0.446%,–
O=C(Nc1nc2cc(Cl)ccc2s1)C1CCCN(S(=O)(=O)c2cccc3cccnc23)C1 (stereo not drawn),inactive: -4.41%,–
COc1ccc2nc(C)cc(NCc3cccc(C(F)(F)F)c3)c2c1,inactive: 7.1%,–
OC[C@@H]1[C@@H](c2ccc(F)cc2)C(c2cccc(Cl)c2)=NN1c1ccccc1,inactive: 0.584%,–
O=C(Nc1cccc(S(=O)(=O)C(F)F)c1)c1ccc(Cl)c(S(=O)(=O)N2CCOCC2)c1,inactive: -0.947%,–
Nc1ncn([C@@H]2O[C@H](CO)[C@@H](O)[C@H]2O)c(=O)n1,inactive: 2.75%,–
CCN1CCN(CCNC(=O)c2ccc(/C=C3/Sc4ccccc4N(Cc4cccc(C)c4)C3=O)cc2)CC1,inactive: -6.25%,–
OCC1(CCOc2ccccc2)CCN(CC2=Cc3cc(Cl)ccc3OC2)CC1,inactive: -1.6%,–

# By substructure, the entries above with an NH in an aromatic ring (6)
SMILES,"activity change, negative = inhibition",Potency
Cc1ccc(CN2CCC(c3cc(-c4ccc(Cl)cc4)n[nH]3)CC2)cc1,inactive: -1.78%,–
Cc1cc2c(N=O)c(NO)ccc2[nH]1,inactive: -17.6%,–
CCC(C)N1C(=O)S/C(=C/c2ccc(Sc3nc4ccccc4[nH]3)o2)C1=O (stereo not drawn),inactive: -1.05%,–
O=c1nccc(N/N=C/c2ccccc2O)[nH]1,inactive: -18.7%,–
C[C@@H]1ON(C)[C@H]2C[C@H]3c4[nH]c5ccc(-c6ccc7c(c6)OCO7)cc5c4CCN3C(=O)[C@@H]12,inactive: -19.1%,–
Cc1cc(C)c(CSc2ncc(-c3ccc([N+](=O)[O-])cc3)[nH]2)c(C)c1,inactive: -2.77%,–
